Experiment: Soil pH change after application

| Structure (SMILES) | effects on soil pH compared with formic acid (FIGS. 4-6) | change of soil pH with application rate (Nettle sand and Riviera sand, FIG. 1) |
| --- | --- | --- |
| O=C(O)CC(O)(CC(=O)O)C(=O)O [citric acid] | less than formic acid | – |
| O=CO [formic acid] | – | decreased linearly |
